From paper PMC11041014
Results are given in words; binding and its absence hold for the method and conditions named. Binding seen in cells or lysates may run through a third protein. Some binding calls cover weakened binding; strength is not graded here. For some assays here: Sequences can lack the tags named with a protein.

How the values were obtained:
Flag-OTUD5 = biological target: T1, Flag-OTUD5 (UniProt Q96G74); experiment: co-IP; HEK293T cells with the flag-tagged OTUD5 plasmid; precipitated with a FLAG-tag antibody, SLC38A1 detected by Western blotting
T1 sequence: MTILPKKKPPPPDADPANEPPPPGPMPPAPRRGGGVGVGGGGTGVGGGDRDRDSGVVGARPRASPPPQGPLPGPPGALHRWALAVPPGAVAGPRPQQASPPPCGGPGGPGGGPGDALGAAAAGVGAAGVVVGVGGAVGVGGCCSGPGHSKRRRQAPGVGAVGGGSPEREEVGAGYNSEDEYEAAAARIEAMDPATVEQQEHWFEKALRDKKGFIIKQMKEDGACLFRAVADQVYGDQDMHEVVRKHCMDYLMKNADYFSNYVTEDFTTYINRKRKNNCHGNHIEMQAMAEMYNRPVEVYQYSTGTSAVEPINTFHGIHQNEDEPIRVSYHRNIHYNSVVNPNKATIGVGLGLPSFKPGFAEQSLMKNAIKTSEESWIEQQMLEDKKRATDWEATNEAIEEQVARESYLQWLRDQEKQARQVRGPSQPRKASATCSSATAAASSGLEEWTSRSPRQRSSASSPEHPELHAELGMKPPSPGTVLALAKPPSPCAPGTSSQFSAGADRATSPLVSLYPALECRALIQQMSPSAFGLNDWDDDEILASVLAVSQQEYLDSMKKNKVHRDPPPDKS

[1] = biological target: T2, OTU deubiquitinase 5 (OTUD5), endogenous (human (endogenous in HCCLM3)) (UniProt Q96G74); experiment: co-IP; endogenous proteins in HCCLM3 lysate (IP lysis buffer); antibody on Dynabeads Protein G, overnight at 4 °C; anti-OTUD5 IP with anti-SLC38A1 blot and anti-SLC38A1 IP with anti-OTUD5 blot described in the methods
T2 sequence: T1 sequence

B1: solute carrier family 38 member 1 (SLC38A1) (protein, UniProt Q9H2H9 1-487)
chain: MMHFKSGLELTELQNMTVPEDDNISNDSNDFTEVENGQINSKFISDRESRRSLTNSHLEKKKCDEYIPGTTSLGMSVFNLSNAIMGSGILGLAFALANTGILLFLVLLTSVTLLSIYSINLLLICSKETGCMVYEKLGEQVFGTTGKFVIFGATSLQNTGAMLSYLFIVKNELPSAIKFLMGKEETFSAWYVDGRVLVVIVTFGIILPLCLLKNLGYLGYTSGFSLSCMVFFLIVVIYKKFQIPCIVPELNSTISANSTNADTCTPKYVTFNSKTVYALPTIAFAFVCHPSVLPIYSELKDRSQKKMQMVSNISFFAMFVMYFLTAIFGYLTFYDNVQSDLLHKYQSKDDILILTVRLAVIVAVILTVPVLFFTVRSSLFELAKKTKFNLCRHTVVTCILLVVINLLVIFIPSMKDIFGVVGVTSANMLIFILPSSLYLKITDQDGDKGTQRIWAALFLGLGVLFSLVSIPLVIYDWACSSSSDEGH
For B1, the binding (Flag-OTUD5) was “binds” and the binding [1] was “binds”.
